Values of other authors in US20190125751A1, “ANTICANCER COMBINATION THERAPY” (BOEHRINGER INGELHEIM INTERNATIONAL GMBH, priority 2016, published 2019).
At least one structure is not confirmed: it was looked up by name or label, or the drawing left a doubt.

Tested on: EGFR-exon 19 deletion+T790M+C797S
Details: preclinical models; cited from earlier work

Q: Which “sensitivity of the mutant protein to the drug” value does the source give for C=CC(=O)Nc1cccc(Nc2nc(Nc3ccc(N4CCN(C(C)=O)CC4)cc3OC)ncc2C(F)(F)F)c1 [rociletinib] here?
A: resistant
